From patent publication US20140288079A1, “SGC STIMULATORS OF SGC ACTIVATORS IN COMBINATION WITH PDE5 INHBITORS FOR THE TREATMENT OF ERECTILE DYSFUNCTION” (BAYER PHARMA AKTIENGESELLSCHAFT, priority 2009, published 2014)
At least one compound was matched to its structure with a doubt left.

Test system: conscious male chinchilla rabbits
Test: conscious rabbit ED model, low SNP dose (0.02 mg/kg i.v.), PDE5-resistant ED
Type: in vivo
Conditions: low SNP 0.02 mg/kg i.v. 90 min after oral application, PDE5 inhibitor 1 mg/kg p.o. alone
Method: The conscious rabbit ED model previously described (Bischoff and Schneider 2001) was used for the investigation of Erectile function. In brief: conscious male chinchilla rabbits (3-4 kg) were orally treated with the test compounds or with vehicle via gavage, followed by i.v. injection of the NO-donnor sodium nitro-prusside (SNP) in the ear vein, 90 minutes after oral applications. The SNP injections were done in a high dose setting (0.2 mg/kg SNP i.v) and a low dose setting (0.02 mg/kg SNP i.v.) corresponding to the general ED-population and the PDE5 non-responder ED-population, respectively. Penile length was quantified in 5 minutes intervals after injection of the SNP.

CN1CC(=O)N2[C@H](c3ccc4c(c3)OCO4)c3[nH]c4ccccc4c3C[C@@H]2C1=O [Tadalafil, (6R,12aR)-2,3,6,7,12,12a-Hexahydro-2-methyl-6-(3,4-methylene-dioxyphenyl) pyrazino(1′,2′:1,6) pyrido(3,4-b)indole-1,4-dione]
penile erection (penile length): not able to produce any physiologically relevant erection

CCCc1nc(C)c2c(=O)[nH]c(-c3cc(S(=O)(=O)N4CCN(CC)CC4)ccc3OCC)nn12 [Vardenafil, 2-(2-Ethoxy-5-(4-ethylpiperazin-1-yl-1-sulfonyl)phenyl)-5-methyl-7-propyl-3H-imidazo (5,1-f) (1,2,4)triazin-4-one, reference compound]
penile erection (penile length): not effective | penile erection (penile length) (listed as vardenafil): not able to produce any physiologically relevant erection
